Laboratory results taken from PubChem BioAssay AID248 (DTP/NCI, 2004).
The list does not hold the whole screen: its compounds were picked by chemical class. Not every dose and run of a compound is shown. T/C: endpoint of the treated group in % of that of the vehicle group. Some entries give survivors of the animals treated and no T/C: the source files T/C as zero there, which appears to mark a toxic dose or a test without result, not a measured value. Some survivor counts are full or nearly so, which does not show that the dose was tolerated: the source hardly ever lists a survival T/C far under the control, and the zero likely stands for such cases as well. Counts of survivors are from the toxicity check (mostly the fifth day) where no day follows; animals may have died later. Schedules are NCI's codes, read here as Q, the interval in days (D) or hours (H), X, the number of doses. For survival time, the PubChem record calls one and a half times the control and up active, and a quarter to a half above the control has no call in these data; cut-offs in other NCI protocols can differ. Some T/C values are marked as having no survivor count here; that says nothing about deaths at the dose. Some T/C values are followed by the survivors on the day toxicity was checked, most often the fifth; without a count or a note in brackets, all were alive then. Some metal complexes and salts are drawn in pieces, as in the source, so charges may not balance.

System: L1210 leukemia ip in BDF1 mice, survival T/C
Assay: NCI In Vivo Anticancer Drug Screen. Data for tumor model L1210 Leukemia (intraperitoneal) in B6D2F1 (BDF1) mice
Conditions: T/C endpoint: mean survival time, higher T/C = longer survival
[1] = dose: 100.0 mg/kg/injection, schedule: Q01DX001 (ip), vehicle: saline
[2] = dose: 200.0 mg/kg/injection, schedule: Q01DX001 (ip), vehicle: saline
[3] = dose: 400.0 mg/kg/injection, schedule: Q01DX001 (ip), vehicle: saline
[4] = dose: 100.0 mg/kg/injection, schedule: Q01DX009 (ip), vehicle: saline with Tween-80
[5] = dose: 200.0 mg/kg/injection, schedule: Q01DX009 (ip), vehicle: saline with Tween-80
[6] = dose: 100.0 mg/kg/injection, schedule: Q04DX002 (ip), vehicle: saline
[7] = dose: 25.0 mg/kg/injection, schedule: Q01DX009 (ip), vehicle: saline
[8] = dose: 25.0 mg/kg/injection, schedule: Q04DX003 (ip), vehicle: saline
[9] = dose: 50.0 mg/kg/injection, schedule: Q04DX003 (ip), vehicle: saline

CNNC(=O)NP(=O)(NC(=O)NNC)NC(=O)NNC
T/C [1]: 97 % of control | T/C [2]: 92 % of control | survivor count [3]: 2 of 4

CC1CCC(OO)(OOC2(OO)CCC(C)CC2)CC1 (stereo not given)
T/C (dose: 50.0 mg/kg/injection, schedule: Q01DX009 (ip), vehicle: saline with Tween-80): 107 % of control [survivor count not shown] | T/C [4]: 96 % of control [survivor count not shown] | T/C [5]: 96 % of control [survivor count not shown]

O=Cc1ccc(N(CCI)CCI)cc1
T/C (dose: 50.0 mg/kg/injection, schedule: Q01DX001 (ip), vehicle: carboxymethylcellulose (CMC)): 114 % of control | T/C (dose: 100.0 mg/kg/injection, schedule: Q01DX001 (ip), vehicle: carboxymethylcellulose (CMC)): 118 % of control | T/C (dose: 200.0 mg/kg/injection, schedule: Q01DX001 (ip), vehicle: carboxymethylcellulose (CMC)): 103 % of control | T/C (dose: 400.0 mg/kg/injection, schedule: Q01DX001 (ip), vehicle: carboxymethylcellulose (CMC)): 108 % of control

CC(C)(C)P(=S)(Cl)c1ccccc1 (stereo not given)
T/C (dose: 100.0 mg/kg/injection, schedule: Q01DX009 (ip), vehicle: Klucel (hydroxypropylcellulose) (HPC)): 100 % of control | T/C (dose: 200.0 mg/kg/injection, schedule: Q01DX009 (ip), vehicle: Klucel (hydroxypropylcellulose) (HPC)): 97 % of control | T/C (dose: 400.0 mg/kg/injection, schedule: Q01DX009 (ip), vehicle: Klucel (hydroxypropylcellulose) (HPC)): 92 % of control

CCCCO[PH+](OCCCC)OCCCC.CCCCO[PH+](OCCCC)OCCCC.[C-]#[O+].[C-]#[O+].[C-]#[O+].[C-]#[O+].[Cr]
T/C (dose: 50.0 mg/kg/injection, schedule: Q01DX009 (ip), vehicle: acetone): 95 % of control | T/C (dose: 100.0 mg/kg/injection, schedule: Q01DX009 (ip), vehicle: acetone): 100 % of control | T/C (dose: 100.0 mg/kg/injection, schedule: Q04DX003 (ip), vehicle: acetone): 101 % of control | T/C (dose: 200.0 mg/kg/injection, schedule: Q01DX009 (ip), vehicle: acetone): 103 % of control | T/C (dose: 200.0 mg/kg/injection, schedule: Q04DX003 (ip), vehicle: acetone): 98 % of control | T/C (dose: 400.0 mg/kg/injection, schedule: Q04DX003 (ip), vehicle: acetone): 98 % of control

CN(C)[P+](C)(N(C)C)N(C)C
T/C [6]: 89 % of control [survivor count not shown]

O=[N+]([O-])c1cc(S(=O)(=O)c2cc([N+](=O)[O-])c(Cl)c([N+](=O)[O-])c2)ccc1Cl
T/C [6]: 90 % of control | T/C (dose: 200.0 mg/kg/injection, schedule: Q04DX002 (ip), vehicle: saline): 90 % of control | survivor count (dose: 400.0 mg/kg/injection, schedule: Q04DX002 (ip), vehicle: saline): 2 of 3

O=C(Nc1ccc([N+](=O)[O-])cc1[N+](=O)[O-])Nc1ccc([N+](=O)[O-])cc1[N+](=O)[O-]
T/C [4]: 101 % of control | T/C (dose: 100.0 mg/kg/injection, schedule: Q04DX003 (ip), vehicle: Klucel (hydroxypropylcellulose) (HPC)): 87 % of control | T/C [5]: 101 % of control | T/C (dose: 200.0 mg/kg/injection, schedule: Q04DX003 (ip), vehicle: Klucel (hydroxypropylcellulose) (HPC)): 92 % of control | T/C (dose: 400.0 mg/kg/injection, schedule: Q01DX009 (ip), vehicle: saline with Tween-80): 100 % of control | T/C (dose: 400.0 mg/kg/injection, schedule: Q04DX003 (ip), vehicle: Klucel (hydroxypropylcellulose) (HPC)): 113 % of control

CCOP(=O)(NC(=S)NC12CC3CC(CC(C3)C1)C2)OCC
T/C (dose: 75.0 mg/kg/injection, schedule: Q01DX009 (ip), vehicle: Klucel (hydroxypropylcellulose) (HPC)): 98 % of control | T/C (dose: 150.0 mg/kg/injection, schedule: Q01DX009 (ip), vehicle: Klucel (hydroxypropylcellulose) (HPC)): 93 % of control | survivor count (dose: 300.0 mg/kg/injection, schedule: Q01DX009 (ip), vehicle: Klucel (hydroxypropylcellulose) (HPC)): 3 of 6

CC1(Cc2ccccc2)C[N+]12CCCCC2 (stereo not given)
T/C (dose: 12.0 mg/kg/injection, schedule: Q01DX009 (ip), vehicle: saline): 92 % of control | T/C (dose: 12.5 mg/kg/injection, schedule: Q04DX003 (ip), vehicle: saline): 94 % of control | T/C [7]: 103 % of control | T/C [8]: 103 % of control | T/C (dose: 50.0 mg/kg/injection, schedule: Q01DX009 (ip), vehicle: saline): 116 % of control | T/C [9]: 105 % of control | survivor count (dose: 100.0 mg/kg/injection, schedule: Q04DX003 (ip), vehicle: saline): 0 of 6 | survivor count (dose: 200.0 mg/kg/injection, schedule: Q04DX003 (ip), vehicle: saline): 0 of 6 | survivor count (dose: 400.0 mg/kg/injection, schedule: Q04DX003 (ip), vehicle: saline): 0 of 6

CC(C)(C)C1COP(C)(=S)OC1 (stereo not given)
T/C (dose: 3.0 mg/kg/injection, schedule: Q01DX009 (ip), vehicle: Klucel (hydroxypropylcellulose) (HPC)): 102 % of control [survivor count not shown] | T/C (dose: 3.0 mg/kg/injection, schedule: Q04DX003 (ip), vehicle: Klucel (hydroxypropylcellulose) (HPC)): 100 % of control [survivor count not shown] | T/C (dose: 6.0 mg/kg/injection, schedule: Q01DX009 (ip), vehicle: Klucel (hydroxypropylcellulose) (HPC)): 101 % of control [survivor count not shown] | T/C (dose: 6.0 mg/kg/injection, schedule: Q04DX003 (ip), vehicle: Klucel (hydroxypropylcellulose) (HPC)): 101 % of control [survivor count not shown] | T/C (dose: 12.0 mg/kg/injection, schedule: Q01DX009 (ip), vehicle: Klucel (hydroxypropylcellulose) (HPC)): 104 % of control [survivor count not shown] | T/C (dose: 12.0 mg/kg/injection, schedule: Q04DX003 (ip), vehicle: Klucel (hydroxypropylcellulose) (HPC)): 95 % of control [survivor count not shown] | T/C (dose: 12.5 mg/kg/injection, schedule: Q04DX003 (ip), vehicle: Klucel (hydroxypropylcellulose) (HPC)): 106 % of control [survivor count not shown]

BrCCNc1ccccc1
T/C [1]: 96 % of control | T/C [2]: 96 % of control | T/C [3]: 91 % of control [2 of 3 alive]

CC(C)(C)NCCSP(=S)(c1ccccc1)c1ccccc1
T/C (dose: 100.0 mg/kg/injection, schedule: Q04DX003 (ip), vehicle: saline with Tween-80): 100 % of control | T/C (dose: 200.0 mg/kg/injection, schedule: Q04DX003 (ip), vehicle: saline with Tween-80): 96 % of control | T/C (dose: 400.0 mg/kg/injection, schedule: Q04DX003 (ip), vehicle: saline with Tween-80): 86 % of control

CC1CCN(CCCOC(=O)C(O)(c2ccccc2)c2ccccc2)CCN1C (stereo not given)
T/C (dose: 3.12 mg/kg/injection, schedule: Q01DX009 (ip), vehicle: saline): 105 % of control | T/C (dose: 6.25 mg/kg/injection, schedule: Q01DX009 (ip), vehicle: saline): 97 % of control | T/C (dose: 12.5 mg/kg/injection, schedule: Q01DX009 (ip), vehicle: saline): 103 % of control | T/C [7]: 111 % of control | T/C [8]: 95 % of control | T/C [9]: 95 % of control
